Source: publication PMC4352044
No constants are given. Whether binding was seen depends on the method and setting. In cells and extracts the contact can be indirect. Some entries that bind do so weakly or less than the wild type. Sequences can lack the tags named with a protein.

T1: Scc3-6HA (budding yeast) (UniProt P40541)
T1 sequence: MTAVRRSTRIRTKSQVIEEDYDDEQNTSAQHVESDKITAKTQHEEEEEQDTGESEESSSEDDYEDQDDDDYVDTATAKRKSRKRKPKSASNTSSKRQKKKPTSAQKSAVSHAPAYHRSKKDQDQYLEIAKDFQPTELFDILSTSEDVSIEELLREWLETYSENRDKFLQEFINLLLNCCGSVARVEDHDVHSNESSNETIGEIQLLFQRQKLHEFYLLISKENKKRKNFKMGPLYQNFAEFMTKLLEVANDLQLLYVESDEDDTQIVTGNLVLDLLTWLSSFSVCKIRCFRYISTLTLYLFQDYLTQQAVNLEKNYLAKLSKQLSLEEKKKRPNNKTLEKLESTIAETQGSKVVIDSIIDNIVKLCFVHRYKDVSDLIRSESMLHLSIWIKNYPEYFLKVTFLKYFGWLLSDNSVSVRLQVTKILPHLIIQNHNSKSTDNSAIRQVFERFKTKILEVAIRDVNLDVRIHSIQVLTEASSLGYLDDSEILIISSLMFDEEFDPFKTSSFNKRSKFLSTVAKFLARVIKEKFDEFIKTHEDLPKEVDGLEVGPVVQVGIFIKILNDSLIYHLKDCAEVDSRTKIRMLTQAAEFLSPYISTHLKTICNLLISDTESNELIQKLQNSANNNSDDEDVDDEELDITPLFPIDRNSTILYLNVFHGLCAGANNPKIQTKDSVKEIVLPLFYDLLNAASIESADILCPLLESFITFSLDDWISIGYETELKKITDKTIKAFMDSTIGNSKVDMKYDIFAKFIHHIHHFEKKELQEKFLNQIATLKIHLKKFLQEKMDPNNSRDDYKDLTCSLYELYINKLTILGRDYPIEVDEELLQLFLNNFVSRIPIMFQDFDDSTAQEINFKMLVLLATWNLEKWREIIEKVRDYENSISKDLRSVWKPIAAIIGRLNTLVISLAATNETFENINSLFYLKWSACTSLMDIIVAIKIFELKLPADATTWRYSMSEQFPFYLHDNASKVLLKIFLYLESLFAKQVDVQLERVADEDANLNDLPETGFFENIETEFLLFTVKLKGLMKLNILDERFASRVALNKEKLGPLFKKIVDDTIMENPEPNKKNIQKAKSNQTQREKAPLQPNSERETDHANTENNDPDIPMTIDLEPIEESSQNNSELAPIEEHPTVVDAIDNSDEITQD


Biological target: T1, Scc3-6HA (budding yeast)
Test: co-IP; anti-HA immunoprecipitation of Scc3-6HA (wild type or mutant) from yeast lysates, mid-log cells; IPH150 or IPH50 buffer (50 mM Tris pH 8.0, 150/50 mM NaCl, 5 mM EDTA, 0.5% NP-40, 1 mM DTT), 4°C, protein A/G agarose, Western blot of partners; also in wpl1Δ strains and after depletion of Pds5-3V5-AID with 1 mM IAA

binding	Binder
binds	Scc2-3V5 (protein, UniProt Q04002 1-1493) MSYPGKDKNIPGRIIEALEDLPLSYLVPKDGLAALVNAPMRVSLPFDKTIFTSADDGRDVNINVLGTANSTTSSIKNEAEKERLVFKRPSNFTSSANSVDYVPTNFLEGLSPLAQSVLSTHKGLNDSINIEKKSEIVSRPEAKHKLESVTSNAGNLSFNDNSSNKKTKTSTGVTMTQANLAEQYLNDLKNILDIVGFDQNSAEIGNIEYWLQLPNKKFVLTTNCLTKLQMTIKNITDNPQLSNSIEITWLLRLLDVMVCNIKFSKSSLKMGLDDSMLRYIALLSTIVLFNIFLLGKNDSNLHRESYIMEPVNFLSDLIESLKILTIEYGSLKIEFDTFQEALELLPKYIRNGPFLDDNVTAKLVYIFSDLLMNNDIEATTNIQFQSFWDNVKRISSDILVSLFGSFDQQRGFIIEELLSHIEKLPTKRIQKKLRKVGNQNIYITDFTFTLMSMLENINCYSFCNQMKDIAPENIDLLKNEYKKQEEFLFNIVEHINDTILERFFKNPSALRYVIDNFVQDLLLLISSPQWPVTEKILSSLLKRLLSVYSPSMQVSANIETICLQLIGNIGSTIFDIKCSTRDHEDNNLIKMINYPETLPHFFKSFEECIAYNETIKCRRSATRFLWNLRLGTILILEEYTKDAKEQIITVDNELKKILEQIKDGGLGPELENREADFSTIKLDYFSILHAFELLNLYDPYLKLILSLLAKDKIKLRSTAIKCLSMLASKDKVILSNPMVKETIHRRLNDSSASVKDAILDLVSINSSYFEFYQQINNNYNDDSIMVRKHVLRINEKMYDETNDIVTKVYVIARILMKIEDEEDNIIDMARLILLNRWILKVHEVLDQPEKLKEISSSVLLVMSRVAIMNEKCSQLFDLFLNFYLLNKEAHSKEAYDKITHVLTILTDFLVQKIVELNSDDTNEKNSIVDKQNFLNLLAKFADSTVSFLTKDHITALYPYMVSDEKSDFHYYILQVFRCTFEKLANFKQKFLYDLETTLLSRLPKMNVREIDEAMPLIWSVATHRHDTARVAKACSSCLSHLHPYINKANNEEAAIVVDGKLQRLIYLSTGFARFCFPKPSNDKIAFLQEGETLYEHITKCLLVLSKDKITHVIRRVAVKNLTKLCGNHPKLFNSRHVLHLLDKEFQSDQLDIKLVILESLYDLFLLEERKSVRNTGVNSTLSSNSILKKKLLKTNRVEFANDGVCSALATRFLDNILQLCLLRDLKNSLVAIRLLKLILKFGYTNPSHSIPTVIALFASTSQYIRHVAYELLEDLFEKYETLVFSSLSRGVTKAIHYSIHTDEKYYYKHDHFLSLLEKLCGTGKKNGPKFFKVLKRIMQSYLDDITDLTSTNSSVQKSIFVLCTNISNITFVSQYDLVSLLKTIDLTTDRLKEVIMDEIGDNVSSLSVSEEKLSGIILIQLSLQDLGTYLLHLYGLRDDVLLLDIVEESELKNKQLPAKKPDISKFSAQLENIEQYSSNGKLLTYFRKHVKDT
binds	Scc2-12Myc (protein, UniProt Q04002 1-1493) MSYPGKDKNIPGRIIEALEDLPLSYLVPKDGLAALVNAPMRVSLPFDKTIFTSADDGRDVNINVLGTANSTTSSIKNEAEKERLVFKRPSNFTSSANSVDYVPTNFLEGLSPLAQSVLSTHKGLNDSINIEKKSEIVSRPEAKHKLESVTSNAGNLSFNDNSSNKKTKTSTGVTMTQANLAEQYLNDLKNILDIVGFDQNSAEIGNIEYWLQLPNKKFVLTTNCLTKLQMTIKNITDNPQLSNSIEITWLLRLLDVMVCNIKFSKSSLKMGLDDSMLRYIALLSTIVLFNIFLLGKNDSNLHRESYIMEPVNFLSDLIESLKILTIEYGSLKIEFDTFQEALELLPKYIRNGPFLDDNVTAKLVYIFSDLLMNNDIEATTNIQFQSFWDNVKRISSDILVSLFGSFDQQRGFIIEELLSHIEKLPTKRIQKKLRKVGNQNIYITDFTFTLMSMLENINCYSFCNQMKDIAPENIDLLKNEYKKQEEFLFNIVEHINDTILERFFKNPSALRYVIDNFVQDLLLLISSPQWPVTEKILSSLLKRLLSVYSPSMQVSANIETICLQLIGNIGSTIFDIKCSTRDHEDNNLIKMINYPETLPHFFKSFEECIAYNETIKCRRSATRFLWNLRLGTILILEEYTKDAKEQIITVDNELKKILEQIKDGGLGPELENREADFSTIKLDYFSILHAFELLNLYDPYLKLILSLLAKDKIKLRSTAIKCLSMLASKDKVILSNPMVKETIHRRLNDSSASVKDAILDLVSINSSYFEFYQQINNNYNDDSIMVRKHVLRINEKMYDETNDIVTKVYVIARILMKIEDEEDNIIDMARLILLNRWILKVHEVLDQPEKLKEISSSVLLVMSRVAIMNEKCSQLFDLFLNFYLLNKEAHSKEAYDKITHVLTILTDFLVQKIVELNSDDTNEKNSIVDKQNFLNLLAKFADSTVSFLTKDHITALYPYMVSDEKSDFHYYILQVFRCTFEKLANFKQKFLYDLETTLLSRLPKMNVREIDEAMPLIWSVATHRHDTARVAKACSSCLSHLHPYINKANNEEAAIVVDGKLQRLIYLSTGFARFCFPKPSNDKIAFLQEGETLYEHITKCLLVLSKDKITHVIRRVAVKNLTKLCGNHPKLFNSRHVLHLLDKEFQSDQLDIKLVILESLYDLFLLEERKSVRNTGVNSTLSSNSILKKKLLKTNRVEFANDGVCSALATRFLDNILQLCLLRDLKNSLVAIRLLKLILKFGYTNPSHSIPTVIALFASTSQYIRHVAYELLEDLFEKYETLVFSSLSRGVTKAIHYSIHTDEKYYYKHDHFLSLLEKLCGTGKKNGPKFFKVLKRIMQSYLDDITDLTSTNSSVQKSIFVLCTNISNITFVSQYDLVSLLKTIDLTTDRLKEVIMDEIGDNVSSLSVSEEKLSGIILIQLSLQDLGTYLLHLYGLRDDVLLLDIVEESELKNKQLPAKKPDISKFSAQLENIEQYSSNGKLLTYFRKHVKDT
